Data as given in the supplement of paper PMC10849652.
This is one part of the list.

The chains behind the UniProt entries cited, without tags or fusion partners. Where a name states a change or a piece, a line headed by the entry shows the natural chain unless it says otherwise.
UniProt Q8N9N8: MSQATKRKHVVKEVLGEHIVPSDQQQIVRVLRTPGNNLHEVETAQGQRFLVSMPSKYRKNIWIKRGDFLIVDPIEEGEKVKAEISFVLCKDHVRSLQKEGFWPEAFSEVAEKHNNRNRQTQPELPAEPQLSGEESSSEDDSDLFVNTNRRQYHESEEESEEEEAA
UniProt P41214: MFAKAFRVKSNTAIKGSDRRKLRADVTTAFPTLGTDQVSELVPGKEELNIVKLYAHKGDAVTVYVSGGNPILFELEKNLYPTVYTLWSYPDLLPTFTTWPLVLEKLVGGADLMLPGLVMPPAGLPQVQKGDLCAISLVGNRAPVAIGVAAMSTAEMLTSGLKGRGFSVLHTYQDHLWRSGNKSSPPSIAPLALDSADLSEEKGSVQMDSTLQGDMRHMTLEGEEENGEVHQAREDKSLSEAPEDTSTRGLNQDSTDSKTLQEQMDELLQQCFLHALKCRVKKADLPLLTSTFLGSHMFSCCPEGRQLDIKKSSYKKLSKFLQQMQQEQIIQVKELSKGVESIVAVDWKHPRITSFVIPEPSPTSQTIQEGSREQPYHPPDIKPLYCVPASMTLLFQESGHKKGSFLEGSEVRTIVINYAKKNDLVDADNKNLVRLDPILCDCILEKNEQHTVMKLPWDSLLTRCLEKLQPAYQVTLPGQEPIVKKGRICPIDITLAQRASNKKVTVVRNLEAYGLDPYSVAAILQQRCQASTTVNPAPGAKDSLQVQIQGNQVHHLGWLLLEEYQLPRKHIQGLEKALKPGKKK
UniProt P38919, whole entry, looked up: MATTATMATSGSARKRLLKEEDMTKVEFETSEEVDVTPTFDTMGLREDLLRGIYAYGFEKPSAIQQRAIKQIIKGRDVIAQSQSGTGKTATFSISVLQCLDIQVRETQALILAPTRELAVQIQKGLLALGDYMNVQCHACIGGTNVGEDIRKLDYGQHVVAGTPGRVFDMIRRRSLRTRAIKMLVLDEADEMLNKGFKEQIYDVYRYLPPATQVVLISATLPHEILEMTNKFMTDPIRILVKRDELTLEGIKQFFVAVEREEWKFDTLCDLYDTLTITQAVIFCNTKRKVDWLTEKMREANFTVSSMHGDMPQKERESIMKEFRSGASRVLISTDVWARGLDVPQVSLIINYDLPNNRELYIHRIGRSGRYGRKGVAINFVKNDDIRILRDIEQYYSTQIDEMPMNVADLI
UniProt Q05639, whole entry, looked up: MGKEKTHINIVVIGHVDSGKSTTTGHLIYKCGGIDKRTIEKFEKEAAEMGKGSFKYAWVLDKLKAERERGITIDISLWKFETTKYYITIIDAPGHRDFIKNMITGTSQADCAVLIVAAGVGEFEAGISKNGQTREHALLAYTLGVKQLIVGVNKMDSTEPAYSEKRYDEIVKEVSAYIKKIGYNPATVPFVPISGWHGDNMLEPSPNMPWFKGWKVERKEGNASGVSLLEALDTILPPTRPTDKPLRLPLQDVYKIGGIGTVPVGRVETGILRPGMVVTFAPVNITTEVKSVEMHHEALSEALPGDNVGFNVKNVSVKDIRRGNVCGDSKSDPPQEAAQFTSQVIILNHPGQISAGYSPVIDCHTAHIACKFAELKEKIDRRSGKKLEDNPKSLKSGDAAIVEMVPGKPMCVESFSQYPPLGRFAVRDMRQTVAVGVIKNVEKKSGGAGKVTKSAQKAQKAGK
UniProt Q9NRA8: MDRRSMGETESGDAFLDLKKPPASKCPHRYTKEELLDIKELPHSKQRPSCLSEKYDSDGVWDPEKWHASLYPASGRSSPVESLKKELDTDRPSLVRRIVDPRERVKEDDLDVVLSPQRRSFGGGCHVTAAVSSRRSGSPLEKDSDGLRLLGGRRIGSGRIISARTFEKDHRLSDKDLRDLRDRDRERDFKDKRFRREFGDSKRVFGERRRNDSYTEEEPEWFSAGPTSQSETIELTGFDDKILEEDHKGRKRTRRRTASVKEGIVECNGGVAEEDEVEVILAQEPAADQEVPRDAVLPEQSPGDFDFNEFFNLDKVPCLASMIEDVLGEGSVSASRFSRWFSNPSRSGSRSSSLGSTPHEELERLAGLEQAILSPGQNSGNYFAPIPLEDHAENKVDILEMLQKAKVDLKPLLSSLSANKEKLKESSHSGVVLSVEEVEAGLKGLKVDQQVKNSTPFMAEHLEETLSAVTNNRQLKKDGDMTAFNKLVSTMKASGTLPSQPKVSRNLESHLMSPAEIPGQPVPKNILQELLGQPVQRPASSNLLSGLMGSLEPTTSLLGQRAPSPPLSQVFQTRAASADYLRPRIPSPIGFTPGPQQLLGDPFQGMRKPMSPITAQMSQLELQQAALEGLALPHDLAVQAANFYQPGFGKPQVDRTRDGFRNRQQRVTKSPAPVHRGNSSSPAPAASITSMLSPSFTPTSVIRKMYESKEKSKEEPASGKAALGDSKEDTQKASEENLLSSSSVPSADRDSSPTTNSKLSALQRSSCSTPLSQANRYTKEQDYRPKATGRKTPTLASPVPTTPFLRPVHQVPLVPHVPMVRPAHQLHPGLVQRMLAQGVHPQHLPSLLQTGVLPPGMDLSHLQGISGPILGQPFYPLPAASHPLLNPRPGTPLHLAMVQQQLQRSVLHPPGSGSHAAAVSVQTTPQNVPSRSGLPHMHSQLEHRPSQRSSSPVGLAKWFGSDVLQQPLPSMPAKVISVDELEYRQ
UniProt Q05BV3: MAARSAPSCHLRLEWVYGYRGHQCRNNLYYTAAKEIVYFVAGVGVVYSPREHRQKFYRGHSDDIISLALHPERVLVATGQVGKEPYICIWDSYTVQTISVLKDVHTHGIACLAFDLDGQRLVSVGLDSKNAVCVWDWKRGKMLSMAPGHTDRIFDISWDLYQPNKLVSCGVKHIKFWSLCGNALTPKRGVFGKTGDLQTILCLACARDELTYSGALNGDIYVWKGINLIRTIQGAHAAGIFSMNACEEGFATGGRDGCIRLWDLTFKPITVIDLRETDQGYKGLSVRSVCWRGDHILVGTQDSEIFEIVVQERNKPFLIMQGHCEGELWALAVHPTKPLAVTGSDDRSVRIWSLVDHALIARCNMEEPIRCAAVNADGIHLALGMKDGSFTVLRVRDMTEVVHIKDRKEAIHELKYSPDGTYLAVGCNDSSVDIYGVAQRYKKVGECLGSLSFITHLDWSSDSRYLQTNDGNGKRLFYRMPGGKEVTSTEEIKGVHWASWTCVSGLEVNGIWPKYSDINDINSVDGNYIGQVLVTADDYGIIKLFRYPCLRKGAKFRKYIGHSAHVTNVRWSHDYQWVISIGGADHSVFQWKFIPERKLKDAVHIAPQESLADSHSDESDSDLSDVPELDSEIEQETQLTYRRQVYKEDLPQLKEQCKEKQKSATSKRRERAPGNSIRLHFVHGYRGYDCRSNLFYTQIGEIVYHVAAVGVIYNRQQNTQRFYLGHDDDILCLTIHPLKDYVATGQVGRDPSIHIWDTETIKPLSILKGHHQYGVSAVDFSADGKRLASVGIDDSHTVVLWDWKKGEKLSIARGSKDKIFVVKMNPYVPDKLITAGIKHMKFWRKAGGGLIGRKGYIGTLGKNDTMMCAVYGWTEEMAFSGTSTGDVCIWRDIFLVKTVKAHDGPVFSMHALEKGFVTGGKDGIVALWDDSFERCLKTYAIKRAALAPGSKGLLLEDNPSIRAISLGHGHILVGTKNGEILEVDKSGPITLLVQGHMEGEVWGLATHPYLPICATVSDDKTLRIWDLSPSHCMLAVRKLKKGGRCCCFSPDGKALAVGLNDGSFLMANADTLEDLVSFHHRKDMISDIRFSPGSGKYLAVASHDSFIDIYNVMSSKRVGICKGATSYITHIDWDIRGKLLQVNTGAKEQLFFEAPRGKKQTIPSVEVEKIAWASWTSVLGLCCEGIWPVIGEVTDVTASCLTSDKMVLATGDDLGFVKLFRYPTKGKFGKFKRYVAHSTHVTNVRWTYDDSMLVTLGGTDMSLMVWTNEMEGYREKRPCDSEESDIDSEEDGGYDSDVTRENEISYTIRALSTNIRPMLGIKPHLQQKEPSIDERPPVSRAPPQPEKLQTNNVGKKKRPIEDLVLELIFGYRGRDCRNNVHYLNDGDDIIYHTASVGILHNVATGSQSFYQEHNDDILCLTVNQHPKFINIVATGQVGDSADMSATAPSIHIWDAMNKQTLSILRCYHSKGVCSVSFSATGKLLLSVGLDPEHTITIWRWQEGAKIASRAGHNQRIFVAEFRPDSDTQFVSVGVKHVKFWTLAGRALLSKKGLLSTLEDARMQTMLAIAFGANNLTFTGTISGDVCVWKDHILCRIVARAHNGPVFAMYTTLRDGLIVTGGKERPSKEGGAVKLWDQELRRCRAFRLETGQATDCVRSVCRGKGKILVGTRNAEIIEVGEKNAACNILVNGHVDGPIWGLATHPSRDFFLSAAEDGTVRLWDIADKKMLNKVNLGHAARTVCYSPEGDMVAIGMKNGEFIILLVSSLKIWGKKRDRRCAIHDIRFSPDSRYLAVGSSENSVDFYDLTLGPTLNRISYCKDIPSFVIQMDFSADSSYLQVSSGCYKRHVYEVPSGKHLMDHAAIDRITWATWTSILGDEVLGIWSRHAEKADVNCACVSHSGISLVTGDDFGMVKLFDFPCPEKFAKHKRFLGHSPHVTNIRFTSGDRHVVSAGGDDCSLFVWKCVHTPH
UniProt Q9H5J4: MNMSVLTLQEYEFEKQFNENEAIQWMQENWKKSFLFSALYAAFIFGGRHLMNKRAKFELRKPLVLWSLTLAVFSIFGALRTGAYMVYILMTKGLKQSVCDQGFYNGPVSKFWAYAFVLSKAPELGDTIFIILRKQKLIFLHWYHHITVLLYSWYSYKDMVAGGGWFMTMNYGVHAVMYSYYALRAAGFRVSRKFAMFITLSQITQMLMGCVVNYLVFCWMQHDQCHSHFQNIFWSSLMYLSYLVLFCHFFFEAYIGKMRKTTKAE
UniProt O75822, whole entry, looked up: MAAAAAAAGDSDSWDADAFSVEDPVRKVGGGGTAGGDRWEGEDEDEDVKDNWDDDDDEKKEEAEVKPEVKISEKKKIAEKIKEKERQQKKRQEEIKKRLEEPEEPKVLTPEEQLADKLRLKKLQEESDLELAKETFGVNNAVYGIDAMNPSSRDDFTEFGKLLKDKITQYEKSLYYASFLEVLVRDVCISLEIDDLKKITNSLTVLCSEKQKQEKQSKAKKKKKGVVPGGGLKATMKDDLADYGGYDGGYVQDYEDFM
UniProt O60739, whole entry, looked up: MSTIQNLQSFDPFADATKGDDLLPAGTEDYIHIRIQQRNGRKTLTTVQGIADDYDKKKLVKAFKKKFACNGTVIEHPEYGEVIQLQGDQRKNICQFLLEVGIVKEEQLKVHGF
UniProt Q14152, whole entry, looked up: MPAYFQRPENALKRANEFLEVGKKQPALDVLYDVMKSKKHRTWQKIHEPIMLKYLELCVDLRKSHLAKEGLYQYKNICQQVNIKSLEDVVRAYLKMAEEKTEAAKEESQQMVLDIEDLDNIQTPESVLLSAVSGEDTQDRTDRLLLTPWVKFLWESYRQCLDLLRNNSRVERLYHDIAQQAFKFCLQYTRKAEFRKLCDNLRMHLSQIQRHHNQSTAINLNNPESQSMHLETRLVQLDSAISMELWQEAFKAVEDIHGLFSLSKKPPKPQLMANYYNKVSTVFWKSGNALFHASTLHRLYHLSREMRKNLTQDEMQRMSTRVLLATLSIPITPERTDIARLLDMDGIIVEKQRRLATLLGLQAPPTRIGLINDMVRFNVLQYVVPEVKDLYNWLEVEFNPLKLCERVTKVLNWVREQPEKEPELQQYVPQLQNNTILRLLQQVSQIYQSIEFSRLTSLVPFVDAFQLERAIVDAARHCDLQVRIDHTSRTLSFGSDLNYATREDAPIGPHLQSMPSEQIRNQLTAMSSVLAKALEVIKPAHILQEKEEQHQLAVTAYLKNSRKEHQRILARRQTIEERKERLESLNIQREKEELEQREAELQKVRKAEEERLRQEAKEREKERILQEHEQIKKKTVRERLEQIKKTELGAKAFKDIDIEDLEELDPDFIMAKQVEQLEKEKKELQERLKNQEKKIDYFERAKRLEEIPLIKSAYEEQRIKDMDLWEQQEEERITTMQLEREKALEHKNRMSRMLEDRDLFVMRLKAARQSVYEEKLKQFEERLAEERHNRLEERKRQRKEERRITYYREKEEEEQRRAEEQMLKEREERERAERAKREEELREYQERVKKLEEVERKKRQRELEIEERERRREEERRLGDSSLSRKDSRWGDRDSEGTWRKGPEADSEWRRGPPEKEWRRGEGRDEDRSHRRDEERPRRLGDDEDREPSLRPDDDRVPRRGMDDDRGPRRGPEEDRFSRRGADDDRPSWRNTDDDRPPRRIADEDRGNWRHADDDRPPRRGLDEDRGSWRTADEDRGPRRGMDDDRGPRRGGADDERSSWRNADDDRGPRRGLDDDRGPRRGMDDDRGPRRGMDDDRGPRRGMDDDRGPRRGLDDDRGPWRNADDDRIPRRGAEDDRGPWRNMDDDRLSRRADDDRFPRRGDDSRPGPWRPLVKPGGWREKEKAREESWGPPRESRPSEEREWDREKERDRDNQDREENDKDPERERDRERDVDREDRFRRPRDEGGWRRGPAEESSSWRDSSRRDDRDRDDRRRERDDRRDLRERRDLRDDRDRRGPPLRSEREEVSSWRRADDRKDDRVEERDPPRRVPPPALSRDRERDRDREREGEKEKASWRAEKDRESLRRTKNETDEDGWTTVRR

Legend:
Assay in all cases: log2 fold change, soluble protein after heating vs DMSO (PISA); higher = thermal stabilisation; K562 cells, 10 uM, 30 min; active = over 0.2 and 3.5 SD of the protein, either way, in both replicates (recomputed)
[1] = compound: COC1=CC=C(C=C1)CN2C=CC3=C2C=C(C=C3)C(=O)NO
How it was run: (§1)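 K562 cells at 2×10^6 cells/mL were treated with 10 μM compound for 30 min. Aliquots were heated for 3 min across 48°C-58°C, pooled, and extracted in PBS with 0.5% NP-40 at 4°C; soluble protein was the supernatant after 21,000xg for 90 min. Soluble protein was quantified by TMTpro 16plex LC-MS/MS with channel sums equalised, and reported as log2 fold change in thermal stability against DMSO controls, with values from duplicates.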

[2] = compound: CON(C)C(=O)N1N=C(c2cc(F)ccc2F)S[C@@]1(CCCN)c1ccccc1 [filanesib]
How it was run: as §1

[3] = compound: CO[C@H]1C[C@@H]2CC[C@@H](C)[C@@](O)(O2)C(=O)C(=O)N2CCCC[C@H]2C(=O)O[C@H]([C@H](C)C[C@@H]2CC[C@H](n3cnnn3)[C@H](OC)C2)CC(=O)[C@H](C)/C=C(\C)[C@@H](O)[C@@H](OC)C(=O)[C@H](C)C[C@H](C)/C=C/C=C/C=C/1C [zotarolimus]
How it was run: as §1

[4] = compound: COc1cc(C(=O)O)ccc1NC(=O)[C@@H]1N[C@@H](CC(C)(C)C)[C@](C#N)(c2ccc(Cl)cc2F)[C@H]1c1cccc(Cl)c1F [idasanutlin]
How it was run: as §1

[5] = compound: COc1cc(Nc2ncc3c(n2)-c2ccc(Cl)cc2C(c2c(F)cccc2OC)=NC3)ccc1C(=O)O [alisertib]
How it was run: as §1

[6] = compound: COc1cc2nc(-c3cc(F)ccc3O)nc(N[C@@H]3CNC[C@H]3C(C)(C)O)c2cc1OC
How it was run: as §1

[7] = compound: COc1cc2ncnc(Nc3ccc(F)c(Cl)c3)c2cc1OCCCN1CCOCC1 [gefitinib]
How it was run: as §1

[8] = compound: COc1cccc2cc(-c3nc([C@H]4CC[C@H](C(=O)O)CC4)n4ncnc(N)c34)[nH]c12
How it was run: as §1

[9] = compound: CS(=O)(=O)CCNCc1ccc(-c2ccc3ncnc(Nc4ccc(OCc5cccc(F)c5)c(Cl)c4)c3c2)o1 [lapatinib]
How it was run: as §1

[10] = compound: CS(=O)(=O)N1CCN(Cc2cc3nc(-c4cccc5[nH]ncc45)nc(N4CCOCC4)c3s2)CC1 [pictilisib]
How it was run: as §1

Row | Target | log2 fold change [1] | log2 fold change [2] | log2 fold change [3] | log2 fold change [4] | log2 fold change [5] | log2 fold change [6] | log2 fold change [7] | log2 fold change [8] | log2 fold change [9] | log2 fold change [10]
1 | EIF1AX (UniProt P47813) | inactive: 0.026 | inactive: -0.051 | inactive: 0.012 | inactive: -0.036 | inactive: -0.045 | inactive: -0.101 | inactive: -0.029 | inactive: 0.008 | inactive: 0.027 | inactive: 0
2 | EP300 (UniProt Q09472) | inactive: -0.104 | inactive: 0.061 | inactive: 0.03 | inactive: 0.019 | inactive: 0.041 | inactive: 0.057 | inactive: -0.01 | inactive: 0.075 | inactive: -0.009 | inactive: -0.134
3 | EEFSEC (UniProt P57772) | inactive: -0.066 | inactive: -0.078 | inactive: 0.03 | inactive: 0.012 | inactive: 0.043 | inactive: -0.009 | inactive: 0 | inactive: -0.092 | inactive: -0.012 | inactive: -0.083
4 | EMC4 (UniProt Q5J8M3) | inactive: -0.096 | inactive: 0.03 | inactive: 0.039 | inactive: -0.044 | inactive: -0.011 | inactive: 0.011 | inactive: 0.036 | inactive: 0.069 | inactive: 0.006 | inactive: 0.026
5 | EIF1AD (UniProt Q8N9N8) | inactive: -0.043 | inactive: -0.05 | inactive: -0.005 | inactive: 0.03 | inactive: -0.028 | inactive: -0.051 | inactive: 0.016 | inactive: 0.074 | inactive: 0.011 | inactive: 0.029
6 | EIF2D (UniProt P41214) | inactive: 0.017 | inactive: 0.077 | inactive: 0.045 | inactive: -0.019 | inactive: -0.028 | inactive: 0.042 | inactive: 0.071 | inactive: -0.195 | inactive: 0.092 | inactive: -0.015
7 | EIF4A3 (UniProt P38919) | inactive: -0.038 | inactive: 0.064 | inactive: -0.021 | inactive: -0.022 | inactive: -0.019 | inactive: 0.084 | inactive: 0.013 | inactive: 0.023 | inactive: -0.067 | inactive: 0.131
8 | EMC2 (UniProt Q15006) | inactive: 0.14 | inactive: -0.005 | inactive: 0.003 | inactive: -0.075 | inactive: -0.077 | inactive: 0.009 | inactive: 0.025 | inactive: 0.032 | inactive: 0.03 | inactive: 0.002
9 | EFTUD2 (UniProt Q15029) | inactive: 0.005 | inactive: 0.008 | inactive: -0.022 | inactive: 0.017 | inactive: -0.078 | inactive: -0.04 | inactive: -0.016 | inactive: 0.066 | inactive: 0.043 | inactive: -0.037
10 | EEF1A2 (UniProt Q05639) | inactive: -0.015 | inactive: -0.082 | inactive: 0.004 | inactive: -0.08 | inactive: -0.021 | inactive: 0.038 | inactive: 0.005 | inactive: 0.036 | inactive: -0.048 | inactive: 0.04
11 | ELAC2 (UniProt Q9BQ52) | inactive: -0.028 | inactive: -0.028 | inactive: -0.022 | inactive: -0.033 | inactive: 0.02 | inactive: -0.001 | inactive: -0.018 | inactive: 0.063 | inactive: 0 | inactive: 0.106
12 | EIF4ENIF1 isoform 3 (UniProt Q9NRA8) | inactive: 0.045 | inactive: 0.052 | inactive: -0.046 | inactive: 0.042 | inactive: -0.085 | inactive: 0.04 | – | inactive: -0.044 | inactive: 0.008 | inactive: 0.109
13 | EIF3I (UniProt Q5TFK1) | inactive: 0.028 | – | inactive: 0.1 | inactive: 0.193 | – | – | – | – | – | –
14 | EIF2S2 (UniProt P20042) | inactive: -0.027 | inactive: 0.15 | inactive: -0.006 | inactive: 0.073 | inactive: -0.064 | inactive: 0.04 | inactive: -0.007 | inactive: -0.103 | inactive: -0.008 | inactive: -0.231
15 | ENO2 (UniProt U3KQQ1) | inactive: -0.137 | inactive: 0.189 | – | – | – | inactive: 0.121 | – | – | inactive: -0.311 | inactive: 0.404
16 | EML5 isoform 5 (UniProt Q05BV3) | inactive: -0.111 | – | inactive: 0.237 | inactive: -0.201 | inactive: 1.09 | inactive: 0.095 | inactive: -0.021 | inactive: 0.117 | inactive: 0.021 | –

Some values from the list:
log2 fold change [8], EIF2D (UniProt P41214) reads inactive: -0.195
log2 fold change [4], EP300 (UniProt Q09472) reads inactive: 0.019

Some of the entries so far, tab-delimited:
Row	Target	log2 fold change [1]	log2 fold change [2]	log2 fold change [3]	log2 fold change [4]	log2 fold change [5]	log2 fold change [6]	log2 fold change [7]	log2 fold change [8]	log2 fold change [9]	log2 fold change [10]
6	EIF2D (UniProt P41214)	inactive: 0.017	inactive: 0.077	inactive: 0.045	inactive: -0.019	inactive: -0.028	inactive: 0.042	inactive: 0.071	inactive: -0.195	inactive: 0.092	inactive: -0.015
7	EIF4A3 (UniProt P38919)	inactive: -0.038	inactive: 0.064	inactive: -0.021	inactive: -0.022	inactive: -0.019	inactive: 0.084	inactive: 0.013	inactive: 0.023	inactive: -0.067	inactive: 0.131

Next entries:

Row | Target | log2 fold change [1] | log2 fold change [2] | log2 fold change [3] | log2 fold change [4] | log2 fold change [5] | log2 fold change [6] | log2 fold change [7] | log2 fold change [8] | log2 fold change [9] | log2 fold change [10]
17 | ENTPD4 (UniProt Q9Y227) | inactive: 0.031 | inactive: 0.029 | – | – | – | – | – | – | – | inactive: -0.019
18 | ELOVL6 (UniProt Q9H5J4) | inactive: -0.322 | inactive: 0.172 | inactive: -0.022 | – | inactive: -0.046 | inactive: -0.102 | inactive: -0.046 | inactive: -0.115 | inactive: 0.085 | –
19 | EEF2 (UniProt P13639) | inactive: 0.016 | inactive: -0.066 | inactive: -0.013 | inactive: -0.025 | inactive: -0.063 | inactive: 0 | inactive: -0.004 | inactive: 0.019 | inactive: -0.025 | inactive: -0.01
20 | EGLN1 (UniProt Q9GZT9) | active: -0.361 | inactive: -0.07 | inactive: -0.022 | inactive: -0.004 | inactive: 0.018 | inactive: 0.018 | inactive: 0.022 | inactive: -0.074 | inactive: 0.01 | inactive: 0.009
21 | EIF2AK1 (UniProt Q9BQI3) | inactive: -0.047 | inactive: 0.014 | inactive: -0.057 | inactive: -0.035 | inactive: 0.032 | inactive: 0.01 | – | inactive: -0.089 | inactive: 0.025 | inactive: -0.147
22 | EIF3J isoform 2 (UniProt O75822) | inactive: -0.099 | inactive: 0.013 | – | inactive: 0.107 | inactive: -0.074 | inactive: 0.051 | inactive: 0.047 | inactive: 0.02 | inactive: -0.116 | –
23 | EIF2AK2 (UniProt P19525) | inactive: -0.079 | inactive: 0.453 | inactive: 0.056 | inactive: 0.407 | inactive: -0.018 | – | – | inactive: -0.366 | – | inactive: -0.207
24 | ELP6 (UniProt Q0PNE2) | inactive: -0.052 | inactive: 0.007 | inactive: -0.013 | inactive: -0.052 | inactive: -0.056 | inactive: 0.019 | inactive: -0.002 | inactive: 0.051 | inactive: 0.038 | inactive: 0.043
25 | EIF2B1 (UniProt Q14232) | inactive: 0.069 | inactive: -0.068 | inactive: 0.023 | inactive: -0.016 | inactive: -0.147 | inactive: -0.015 | inactive: -0.031 | inactive: -0.018 | inactive: -0.006 | inactive: 0.03
26 | EIF3G (UniProt K7ER90) | inactive: 0.108 | inactive: 0.057 | inactive: -0.194 | inactive: -0.039 | inactive: 0.02 | – | inactive: -0.148 | inactive: 0.018 | – | –
27 | EIF1B (UniProt O60739) | inactive: 0.19 | inactive: -0.166 | – | – | inactive: 0.221 | – | – | inactive: -0.677 | – | –
28 | EIF3C (UniProt Q99613) | inactive: 0.088 | inactive: 0.069 | inactive: 0.057 | inactive: 0.007 | inactive: -0.057 | inactive: 0.047 | inactive: 0.019 | inactive: -0.181 | inactive: -0.012 | inactive: -0.008
29 | EIF3A (UniProt Q14152) | inactive: 0.024 | inactive: 0.047 | inactive: 0.055 | inactive: 0.009 | inactive: -0.067 | inactive: 0.029 | inactive: 0.025 | inactive: -0.212 | inactive: -0.005 | inactive: -0.016
30 | EIF5A isoform 2 (UniProt P63241) | inactive: 0.082 | inactive: -0.12 | inactive: 0.083 | inactive: -0.03 | inactive: -0.018 | inactive: 0.002 | inactive: 0.016 | inactive: -0.034 | inactive: 0 | inactive: 0.086
31 | EML3 isoform 2 (UniProt Q32P44) | inactive: 0.029 | inactive: 0.166 | inactive: -0.052 | inactive: 0.142 | inactive: -0.028 | inactive: 0.035 | inactive: 0.212 | inactive: -0.048 | inactive: 0.015 | inactive: -0.112
